PubChem BioAssay AID1224830, NIAID – 2016

- Assay: 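Regulators of TLR4 signalling towards TNF-alpha in macrophage-like cells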 (primary screen)
- System: human THP-1 monocytic leukaemia cells, TNF dual-luciferase reporter clone, PMA-differentiated to macrophage-like cells
- Knock-down reagent: siRNA pool against human genes, 50 nM
- Timing: LPS for 4 h, given about 3 days after siRNA transfection
- Treatment: bacterial LPS (TLR4 ligand), 10 ng/ml
- Measurement: 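Ratio of firefly to renilla light, scaled to the plate median and expressed as a robust z-score per replicate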
- Scale: TNF reporter robust z-score: higher = stronger TNF reporter response to LPS
- Rule for the call: 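a well is active when its z-score exceeds 2.8 or falls below -1.5; control wells carry no call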
In all, the deposit lists about 18,000 reagents; shown is a random part of them. Of all reagents, about 2,900 (16%) got an active call. 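Calls are made per well; low scores hint the gene aids the LPS response, high scores that it dampens it.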 Repeated entries: four replicate wells of each siRNA pool. Reagent sequences are not shown.

no.	gene	TNF reporter robust z-score	outcome
1	ZNF582	-0.33	inactive
2	ZNF582	0.13	inactive
3	ZNF582	0.44	inactive
4	ZNF582	-0.31	inactive
5	ZFP36	-1.23	inactive
6	ZFP36	-1.51	active
7	ZFP36	-1.21	inactive
8	ZFP36	-0.97	inactive
9	TACC2	-1.11	inactive
10	TACC2	-0.67	inactive
11	TACC2	-0.88	inactive
12	TACC2	-0.81	inactive
13	KBTBD4	-0.43	inactive
14	KBTBD4	0.89	inactive
15	KBTBD4	0.25	inactive
16	KBTBD4	-0.03	inactive
17	CTAGE1	2.86	active
18	CTAGE1	2.81	active
19	CTAGE1	0.44	inactive
20	CTAGE1	-0.08	inactive
21	KLK10	0.49	inactive
22	KLK10	1.31	inactive
23	KLK10	-0.18	inactive
24	KLK10	0.12	inactive
25	PYCR2	1.9	inactive
26	PYCR2	1.17	inactive
27	PYCR2	2.82	active
28	PYCR2	4.29	active
29	KCNK13	-0.77	inactive
30	KCNK13	0.81	inactive
31	KCNK13	0.31	inactive
32	KCNK13	-0.25	inactive
33	CTXN1	-0.07	inactive
34	CTXN1	0.08	inactive
35	CTXN1	0.83	inactive
36	CTXN1	-0.43	inactive
37	MYRF	2.84	active
38	MYRF	0.81	inactive
39	MYRF	1	inactive
40	MYRF	1.38	inactive
41	C10orf55	-0.58	inactive
42	C10orf55	-1.16	inactive
43	C10orf55	-1.09	inactive
44	C10orf55	0.25	inactive
45	PIERCE1	-0.85	inactive
46	PIERCE1	-0.33	inactive
47	PIERCE1	-0.35	inactive
48	PIERCE1	0	inactive
49	AP1S2	3.18	active
50	AP1S2	1.18	inactive
51	AP1S2	2.66	inactive
52	AP1S2	-0.84	inactive
53	CITED1	0.19	inactive
54	CITED1	-0.33	inactive
55	CITED1	-0.24	inactive
56	CITED1	-0.11	inactive
57	DNAJB5	2.93	active
58	DNAJB5	0.46	inactive
59	DNAJB5	0.18	inactive
60	DNAJB5	1.8	inactive
61	SLC25A51	-0.32	inactive
62	SLC25A51	-0.63	inactive
63	SLC25A51	0.34	inactive
64	SLC25A51	-0.04	inactive
65	NCOA5	-0.01	inactive
66	NCOA5	0.76	inactive
67	NCOA5	-1.17	inactive
68	NCOA5	-0.1	inactive
69	NUP188	-1.28	inactive
70	NUP188	-1.23	inactive
71	NUP188	-1.18	inactive
72	NUP188	-1.36	inactive
73	FXYD7	-1.33	inactive
74	FXYD7	-1.14	inactive
75	FXYD7	-1.37	inactive
76	FXYD7	-1.35	inactive
77	KNDC1	0.93	inactive
78	KNDC1	1.89	inactive
79	KNDC1	-0.43	inactive
80	KNDC1	0.88	inactive
81	C1orf141	2.45	inactive
82	C1orf141	1.92	inactive
83	C1orf141	2.22	inactive
84	C1orf141	2.27	inactive
85	MUC4	0.45	inactive
86	MUC4	0.63	inactive
87	MUC4	0.06	inactive
88	MUC4	-0.24	inactive
89	ZDHHC14	0.21	inactive
90	ZDHHC14	-0.26	inactive
91	ZDHHC14	0.33	inactive
92	ZDHHC14	0.36	inactive
93	LHX5	-1.28	inactive
94	LHX5	-0.76	inactive
95	LHX5	-1.02	inactive
96	LHX5	-1.21	inactive
97	PPIF	0.98	inactive
98	PPIF	0.97	inactive
99	PPIF	1.76	inactive
100	PPIF	0.09	inactive
101	ZNF660	-0.04	inactive
102	ZNF660	0.17	inactive
103	ZNF660	-0.56	inactive
104	ZNF660	1.69	inactive
105	KRAS	-1.87	active
106	KRAS	-1.7	active
107	KRAS	-1.89	active
108	KRAS	-1.65	active
109	RGS16	1.13	inactive
110	RGS16	1.08	inactive
111	RGS16	0.27	inactive
112	RGS16	0.17	inactive
113	EIF4A2	2.93	active
114	EIF4A2	3.84	active
115	EIF4A2	1.77	inactive
116	EIF4A2	1.57	inactive
117	DLGAP1-AS1	-0.25	inactive
118	DLGAP1-AS1	-0.35	inactive
119	DLGAP1-AS1	-0.17	inactive
120	DLGAP1-AS1	-0.61	inactive
121	CTNNAL1	4.81	active
122	CTNNAL1	0.27	inactive
123	CTNNAL1	0.24	inactive
124	CTNNAL1	-0.44	inactive
125	GABPA	-0.06	inactive
126	GABPA	-0.86	inactive
127	GABPA	0.18	inactive
128	GABPA	1.09	inactive
129	CXCL1	0.91	inactive
130	CXCL1	1.11	inactive
131	CXCL1	1.37	inactive
132	CXCL1	0.17	inactive
133	GALT	-0.14	inactive
134	GALT	-0.29	inactive
135	GALT	-0.96	inactive
136	GALT	-0.46	inactive
137	CCDC141	2.17	inactive
138	CCDC141	1.53	inactive
139	CCDC141	-0.69	inactive
140	CCDC141	2.32	inactive

14 entries from above, ordered by “TNF reporter robust z-score”, highest first.
gene	TNF reporter robust z-score	outcome
EIF4A2	3.84	active
EIF4A2	2.93	active
EIF4A2	1.77	inactive
ZNF660	1.69	inactive
EIF4A2	1.57	inactive
RGS16	1.13	inactive
RGS16	1.08	inactive
RGS16	0.27	inactive
RGS16	0.17	inactive
DLGAP1-AS1	-0.25	inactive
KRAS	-1.65	active
KRAS	-1.7	active
KRAS	-1.87	active
KRAS	-1.89	active
